In the data set the target is estrogen receptor alpha (ERα), purified (UniProt P03372). Nature of the data set: SPR. The conditions noted are these: SPR: 40 mM HEPES-KOH pH 7.4, 10 mM MgCl2, 200 mM KCl, 0.2% Triton X-100, 2 mM DTT, room temperature, ERα 58-708 nM (relative binding averaged over concentrations), label: 5'-biotin on the ERE strand.

By UniProt entry, the sequences of proteins in these tests, tags left out.
UniProt P03372, whole entry: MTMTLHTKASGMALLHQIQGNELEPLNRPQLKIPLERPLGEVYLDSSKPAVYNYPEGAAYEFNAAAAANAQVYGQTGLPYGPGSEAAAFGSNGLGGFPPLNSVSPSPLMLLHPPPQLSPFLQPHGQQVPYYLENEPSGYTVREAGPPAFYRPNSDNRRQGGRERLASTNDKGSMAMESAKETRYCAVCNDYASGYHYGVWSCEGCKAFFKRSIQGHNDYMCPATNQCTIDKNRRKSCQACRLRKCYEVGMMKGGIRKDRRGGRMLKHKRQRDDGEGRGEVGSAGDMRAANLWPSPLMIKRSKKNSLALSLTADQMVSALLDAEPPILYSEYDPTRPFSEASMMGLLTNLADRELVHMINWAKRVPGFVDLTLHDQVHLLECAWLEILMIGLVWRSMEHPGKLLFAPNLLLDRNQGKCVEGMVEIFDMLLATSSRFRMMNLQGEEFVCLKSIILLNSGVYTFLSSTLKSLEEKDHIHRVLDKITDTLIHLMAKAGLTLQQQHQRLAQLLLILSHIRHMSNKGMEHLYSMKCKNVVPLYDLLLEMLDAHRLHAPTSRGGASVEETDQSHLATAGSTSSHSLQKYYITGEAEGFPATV

Construct, isoform or probe ends are uncertain for at least one entry. A weaker result is weaker than the reference pair of the same experiment.

Regarding “TGTGGCAACTGGTTCATTCTGATCTAGAAGCAAC (double strand) [mutant 2 (half-sites)]”, for the setting “significantly reduced”, the binding result is listed as “binds more weakly”.
Take “TGTGGCAATTGGGTCATTCTGACCTAAAAGCAAC (double strand) [mutant 3 (conserved G and symmetrical C)]”: the binding result (further diminished versus mutant 1) was “binds more weakly”.

(Values after publication PMC1794554.)
